Results published in paper PMC11817702.
These are yes or no findings as the source states them, for the method shown. Binding seen in cells or lysates may run through a third protein. Some results given as binding are weak or reduced against the parent protein; the word gives no strength. Tags and fused reporters may be left off the sequences shown.

Sequences of proteins named here, by UniProt entry; tags and fusion partners are left off.
UniProt Q61056: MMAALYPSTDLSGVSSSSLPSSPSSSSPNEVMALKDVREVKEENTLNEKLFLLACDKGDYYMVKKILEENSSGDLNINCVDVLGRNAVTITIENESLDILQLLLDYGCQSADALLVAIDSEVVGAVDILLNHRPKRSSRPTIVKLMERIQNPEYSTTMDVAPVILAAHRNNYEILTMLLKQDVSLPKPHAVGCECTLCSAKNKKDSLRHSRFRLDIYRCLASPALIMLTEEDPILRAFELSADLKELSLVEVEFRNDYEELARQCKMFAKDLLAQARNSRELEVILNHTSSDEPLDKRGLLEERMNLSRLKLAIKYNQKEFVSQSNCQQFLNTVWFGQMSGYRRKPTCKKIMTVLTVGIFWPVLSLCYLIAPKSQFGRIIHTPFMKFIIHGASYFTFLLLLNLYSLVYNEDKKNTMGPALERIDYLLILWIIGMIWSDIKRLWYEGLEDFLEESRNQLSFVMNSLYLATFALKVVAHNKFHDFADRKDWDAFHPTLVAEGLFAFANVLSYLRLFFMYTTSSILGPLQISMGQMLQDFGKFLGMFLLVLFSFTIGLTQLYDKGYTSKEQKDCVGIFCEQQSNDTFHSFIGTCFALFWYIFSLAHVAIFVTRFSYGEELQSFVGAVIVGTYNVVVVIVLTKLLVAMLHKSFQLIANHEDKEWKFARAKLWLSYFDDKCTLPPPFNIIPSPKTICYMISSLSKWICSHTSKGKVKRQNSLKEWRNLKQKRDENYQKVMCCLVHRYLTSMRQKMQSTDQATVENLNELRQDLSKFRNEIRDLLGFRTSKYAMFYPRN

Molecular target: T1, CRY2-FLAG (cryptochrome circadian regulator 2 with a FLAG tag) (UniProt Q9R194)
T1 sequence: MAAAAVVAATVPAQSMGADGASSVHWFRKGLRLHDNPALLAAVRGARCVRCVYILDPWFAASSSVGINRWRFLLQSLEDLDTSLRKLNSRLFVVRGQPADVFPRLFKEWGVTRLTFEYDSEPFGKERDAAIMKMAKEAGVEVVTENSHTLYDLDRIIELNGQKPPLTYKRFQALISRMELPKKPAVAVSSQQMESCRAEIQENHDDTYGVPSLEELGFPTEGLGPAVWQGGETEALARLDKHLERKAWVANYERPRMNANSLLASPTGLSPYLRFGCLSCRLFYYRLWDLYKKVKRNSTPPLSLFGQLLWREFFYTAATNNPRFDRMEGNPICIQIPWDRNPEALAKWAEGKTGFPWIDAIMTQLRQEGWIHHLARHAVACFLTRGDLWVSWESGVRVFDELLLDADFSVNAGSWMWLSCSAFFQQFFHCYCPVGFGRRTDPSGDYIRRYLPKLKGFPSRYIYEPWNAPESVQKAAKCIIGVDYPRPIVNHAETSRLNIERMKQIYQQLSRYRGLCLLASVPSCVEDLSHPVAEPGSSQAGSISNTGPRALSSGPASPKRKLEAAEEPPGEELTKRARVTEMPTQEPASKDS
Assay: co-IP; C2C12 cells transfected with CRY2-FLAG; cytosolic and nuclear fractions taken 6 h after PEMF or sham exposure; diluted in IP buffer (25 mM Tris HCl pH 8, 150 mM NaCl, 1% Triton X-100, 5% glycerol); pre-cleared; FLAG antibody overnight at 4 °C, then protein A/G PLUS Agarose; Western blot for TRPC1; IgG control

transient receptor potential canonical 1 (TRPC1) (from UniProt Q61056 1-793)
binding: binds
